From paper PMC8088435
These are yes or no findings as the source states them, for the method shown. In cells and extracts the contact can be indirect. Some entries that bind do so weakly or less than the wild type.

Protein sequences, listed by entry. Tags and fused reporters are not part of them.
UniProt P35222: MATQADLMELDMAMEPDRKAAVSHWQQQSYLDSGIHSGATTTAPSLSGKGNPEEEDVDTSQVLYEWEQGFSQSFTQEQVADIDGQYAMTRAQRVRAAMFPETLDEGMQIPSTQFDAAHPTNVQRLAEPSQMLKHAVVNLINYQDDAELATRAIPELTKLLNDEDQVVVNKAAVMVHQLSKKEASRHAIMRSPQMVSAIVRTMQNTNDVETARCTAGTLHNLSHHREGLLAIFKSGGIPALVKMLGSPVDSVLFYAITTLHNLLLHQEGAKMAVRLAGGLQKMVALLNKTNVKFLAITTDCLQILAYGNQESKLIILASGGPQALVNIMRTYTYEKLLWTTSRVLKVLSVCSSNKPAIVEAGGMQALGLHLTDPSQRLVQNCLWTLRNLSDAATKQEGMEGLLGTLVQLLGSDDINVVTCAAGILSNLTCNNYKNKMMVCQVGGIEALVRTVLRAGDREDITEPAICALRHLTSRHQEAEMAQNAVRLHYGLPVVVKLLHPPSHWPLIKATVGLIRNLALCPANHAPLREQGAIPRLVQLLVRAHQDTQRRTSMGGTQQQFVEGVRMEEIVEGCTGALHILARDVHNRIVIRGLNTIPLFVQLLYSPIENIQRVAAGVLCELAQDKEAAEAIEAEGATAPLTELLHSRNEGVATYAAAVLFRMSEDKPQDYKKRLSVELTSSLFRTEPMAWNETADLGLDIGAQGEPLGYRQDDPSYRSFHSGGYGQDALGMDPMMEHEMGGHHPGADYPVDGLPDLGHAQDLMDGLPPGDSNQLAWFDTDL

Key:
[1] = biological target: β-catenin (human (endogenous in HEK293T)) (UniProt P35222); assay: co-IP; IP-WB from lysates (lysis buffer with Triton X-100) of HEK293T cells transfected with CBY1 WT or S20A; antibody on Protein G Dynabeads, overnight, five washes; antibodies against 14-3-3, β-catenin and CBY1; which one precipitated is not told
[2] = biological target: β-catenin (human (endogenous in BT549)) (UniProt P35222); assay: co-IP; IP-WB from lysates of BT549-derived non-CSC (also with ectopic lnc408 or sh-CBY1) and CSC (also with ectopic CBY1 or sh-lnc408); antibody on Protein G Dynabeads; which antibody precipitated is not told

| Substance | binding [1] | binding [2] |
| --- | --- | --- |
| wild-type CBY1 (chibby 1) (from UniProt Q9Y3M2 1-126) | binds |  |
| ectopic CBY1 (oeCBY1) (from UniProt Q9Y3M2 1-126) |  | binds |
| CBY1 (chibby 1) (from UniProt Q9Y3M2 1-126) |  | binds |
